Taken from: PubChem BioAssay AID743121 (NCATS, 2013)
The whole screen tested about 26,000 reagents; this is a part drawn at random. 167 of them (0.63%) were called active. 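Calls are per gene from RSA p-values that are not deposited; an individual active-marked siRNA can sensitise only weakly.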 A number with no mark means an inactive call.

Test: 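Genes whose silencing strengthens cell killing by camptothecin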 (primary screen)
Cell system: MDA-MB-231 cells, a human breast cancer line
Knock-down reagent: single siRNA against human genes, 20 nM siRNA (0.8 pmol per well)
Time to read-out: 120 h (drug added 48 h after transfection, read 72 h later)
Conditions: camptothecin 20 nM (about EC30) for 72 h; vehicle 0.1% DMSO in parallel plates
Read-out: 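CellTiter-Glo ATP signal, scaled to control siRNA as percent viability; sensitisation given as log2 of untreated divided by camptothecin-treated viability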
Direction: log2 vehicle/camptothecin viability: higher = stronger sensitisation to camptothecin; viability with camptothecin and viability without drug: higher = more viable cells
Active means: 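Each gene scored by redundant siRNA activity (RSA) over its individual siRNA ratios; a gene is called active at p < 0.001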

gene knocked down | PubChem SID | log2 vehicle/camptothecin viability | viability with camptothecin (% of control) | viability without drug (% of control)
MED8 (mediator complex subunit 8) | SID164559654 | -0.0726 | 55.1 | 52.4
MED8 (mediator complex subunit 8) | SID164559658 | -0.228 | 96.2 | 82.2
MED8 (mediator complex subunit 8) | SID164559659 | -0.24 | 89.3 | 75.6
MED8 (mediator complex subunit 8) | SID164559664 | -0.223 | 21.3 | 18.2
GLI1 (GLI family zinc finger 1) | SID164366714 | -0.137 | 37.5 | 34.1
GLI1 (GLI family zinc finger 1) | SID164366718 | -0.683 | 86.9 | 54.1
GLI1 (GLI family zinc finger 1) | SID164366719 | -0.488 | 51.9 | 37
GLI1 (GLI family zinc finger 1) | SID164366720 | -0.176 | 94.2 | 83.4
IKBKE (inhibitor of nuclear factor kappa B kinase subunit epsilon) | SID164405063 | -0.0269 | 90.4 | 88.8
IKBKE (inhibitor of nuclear factor kappa B kinase subunit epsilon) | SID164405065 | 0.222 | 37.8 | 44.1
IKBKE (inhibitor of nuclear factor kappa B kinase subunit epsilon) | SID164405067 | -0.207 | 116 | 101
IKBKE (inhibitor of nuclear factor kappa B kinase subunit epsilon) | SID164405069 | 0.214 | 76.5 | 88.7
GZMK (granzyme K) | SID164368341 | 0.0986 | 71.3 | 76.4
GZMK (granzyme K) | SID164368342 | -0.15 | 104 | 93.7
GZMK (granzyme K) | SID164368344 | -0.19 | 93.1 | 81.6
GZMK (granzyme K) | SID164368345 | -0.12 | 102 | 93.8
HEPH (hephaestin) | SID164406774 | 0.305 | 60.1 | 74.2
HEPH (hephaestin) | SID164406776 | -0.128 | 97.6 | 89.3
HEPH (hephaestin) | SID164406777 | -0.174 | 67.3 | 59.7
HEPH (hephaestin) | SID164406778 | -0.297 | 90.6 | 73.7
HDAC5 (histone deacetylase 5) | SID164408074 | -0.291 | 94.2 | 77
HDAC5 (histone deacetylase 5) | SID164408076 | 0.0904 | 60.8 | 64.7
HDAC5 (histone deacetylase 5) | SID164408078 | -0.133 | 91.7 | 83.7
HDAC5 (histone deacetylase 5) | SID164408080 | 0.0549 | 47 | 48.8
INPP4B (inositol polyphosphate-4-phosphatase type II B) | SID164400062 | -0.0581 | 83.4 | 80.1
INPP4B (inositol polyphosphate-4-phosphatase type II B) | SID164400063 | -0.0791 | 66.3 | 62.7
INPP4B (inositol polyphosphate-4-phosphatase type II B) | SID164400064 | -0.46 | 58.9 | 42.8
INPP4B (inositol polyphosphate-4-phosphatase type II B) | SID164400067 | -0.364 | 101 | 78.7
NAA10 (N-alpha-acetyltransferase 10, NatA catalytic subunit) | SID164396636 | -0.449 | 74.3 | 54.4
NAA10 (N-alpha-acetyltransferase 10, NatA catalytic subunit) | SID164396637 | -0.583 | 81.3 | 54.3
NAA10 (N-alpha-acetyltransferase 10, NatA catalytic subunit) | SID164396638 | -0.475 | 87.8 | 63.2
NAA10 (N-alpha-acetyltransferase 10, NatA catalytic subunit) | SID164396640 | -0.268 | 4 | 3.32
GPR82 (G protein-coupled receptor 82) | SID164462907 | -0.232 | 120 | 102
GPR82 (G protein-coupled receptor 82) | SID164462912 | -0.477 | 97.4 | 70
GPR82 (G protein-coupled receptor 82) | SID164462913 | -0.533 | 78.4 | 54.2
GPR82 (G protein-coupled receptor 82) | SID164462914 | -0.402 | 98.2 | 74.3
UBE2S (ubiquitin conjugating enzyme E2 S) | SID164463666 | -0.42 | 47.7 | 35.6
UBE2S (ubiquitin conjugating enzyme E2 S) | SID164463667 | 0.299 | 80.7 | 99.3
UBE2S (ubiquitin conjugating enzyme E2 S) | SID164463668 | 0.708 | 21.9 | 35.8
UBE2S (ubiquitin conjugating enzyme E2 S) | SID164463671 | -0.156 | 108 | 97.3
RAB6A (RAB6A, member RAS oncogene family) | SID164384377 | -0.611 | 86.1 | 56.3
RAB6A (RAB6A, member RAS oncogene family) | SID164384379 | 0.393 | 74.8 | 98.3
RAB6A (RAB6A, member RAS oncogene family) | SID164384380 | -0.59 | 63.4 | 42.1
RAB6A (RAB6A, member RAS oncogene family) | SID164384382 | -0.291 | 79.2 | 64.8
RPGRIP1 (RPGR interacting protein 1) | SID164492627 | 0.471 | 61.5 | 85.2
RPGRIP1 (RPGR interacting protein 1) | SID164492628 | -0.183 | 68.9 | 60.7
RPGRIP1 (RPGR interacting protein 1) | SID164492629 | 0.148 | 87 | 96.4
RPGRIP1 (RPGR interacting protein 1) | SID164492632 | -0.236 | 114 | 97
